# Assay results: the supplement of paper PMC7666118
# By UniProt entry, the sequences of proteins in these tests, tags left out. Where a name states a change or a piece, a line headed by the entry shows the natural chain unless it says otherwise.
# UniProt Q9H1P3, whole entry: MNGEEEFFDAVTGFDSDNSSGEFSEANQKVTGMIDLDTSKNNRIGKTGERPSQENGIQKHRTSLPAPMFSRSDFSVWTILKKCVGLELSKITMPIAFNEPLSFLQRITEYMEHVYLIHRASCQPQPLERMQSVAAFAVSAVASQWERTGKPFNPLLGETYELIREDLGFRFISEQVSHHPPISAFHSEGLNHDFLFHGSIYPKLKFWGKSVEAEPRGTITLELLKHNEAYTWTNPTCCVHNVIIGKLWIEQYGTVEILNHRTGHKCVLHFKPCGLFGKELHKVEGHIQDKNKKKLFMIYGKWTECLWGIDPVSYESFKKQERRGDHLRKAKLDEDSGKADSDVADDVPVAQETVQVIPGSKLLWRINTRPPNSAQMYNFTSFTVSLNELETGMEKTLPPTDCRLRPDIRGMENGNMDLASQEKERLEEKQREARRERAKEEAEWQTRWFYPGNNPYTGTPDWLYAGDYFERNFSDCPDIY
# UniProt Q08J23, whole entry: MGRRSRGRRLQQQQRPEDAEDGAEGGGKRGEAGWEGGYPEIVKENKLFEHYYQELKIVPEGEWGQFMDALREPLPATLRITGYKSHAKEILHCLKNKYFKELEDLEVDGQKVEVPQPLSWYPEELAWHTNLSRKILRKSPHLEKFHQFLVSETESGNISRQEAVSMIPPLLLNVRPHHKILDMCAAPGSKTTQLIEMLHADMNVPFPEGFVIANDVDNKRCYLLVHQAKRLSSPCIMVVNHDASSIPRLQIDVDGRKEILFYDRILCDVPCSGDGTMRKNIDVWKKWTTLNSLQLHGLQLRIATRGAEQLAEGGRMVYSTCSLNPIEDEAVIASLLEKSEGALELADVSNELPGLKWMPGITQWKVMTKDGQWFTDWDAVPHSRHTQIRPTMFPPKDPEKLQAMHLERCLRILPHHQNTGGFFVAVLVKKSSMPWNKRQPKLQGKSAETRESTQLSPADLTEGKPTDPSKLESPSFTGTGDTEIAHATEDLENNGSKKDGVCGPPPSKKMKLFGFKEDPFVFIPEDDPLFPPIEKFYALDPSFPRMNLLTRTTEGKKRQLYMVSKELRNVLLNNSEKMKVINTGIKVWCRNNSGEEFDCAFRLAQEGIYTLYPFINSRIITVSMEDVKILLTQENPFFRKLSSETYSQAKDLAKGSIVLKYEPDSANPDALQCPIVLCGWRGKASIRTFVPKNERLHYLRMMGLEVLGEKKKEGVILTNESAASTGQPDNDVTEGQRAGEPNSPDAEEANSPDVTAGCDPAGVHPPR
# UniProt Q5TFE4: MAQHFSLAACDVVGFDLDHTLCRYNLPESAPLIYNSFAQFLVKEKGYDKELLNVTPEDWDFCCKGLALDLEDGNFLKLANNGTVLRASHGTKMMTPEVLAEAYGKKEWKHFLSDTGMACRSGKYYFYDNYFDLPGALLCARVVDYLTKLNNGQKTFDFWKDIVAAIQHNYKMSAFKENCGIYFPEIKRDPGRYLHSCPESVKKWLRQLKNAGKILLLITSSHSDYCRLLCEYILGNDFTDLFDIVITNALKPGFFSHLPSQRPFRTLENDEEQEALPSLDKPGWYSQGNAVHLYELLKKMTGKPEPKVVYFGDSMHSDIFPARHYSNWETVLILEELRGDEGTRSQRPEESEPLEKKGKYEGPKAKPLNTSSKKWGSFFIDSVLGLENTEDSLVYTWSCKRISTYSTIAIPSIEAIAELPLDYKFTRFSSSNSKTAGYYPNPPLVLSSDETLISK
# UniProt O43809, whole entry: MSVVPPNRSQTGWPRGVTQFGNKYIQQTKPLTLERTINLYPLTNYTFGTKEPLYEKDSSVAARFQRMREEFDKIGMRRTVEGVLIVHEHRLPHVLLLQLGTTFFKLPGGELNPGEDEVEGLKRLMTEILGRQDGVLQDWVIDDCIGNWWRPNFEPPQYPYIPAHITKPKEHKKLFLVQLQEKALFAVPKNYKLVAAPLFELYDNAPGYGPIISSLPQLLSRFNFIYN
# UniProt P46459: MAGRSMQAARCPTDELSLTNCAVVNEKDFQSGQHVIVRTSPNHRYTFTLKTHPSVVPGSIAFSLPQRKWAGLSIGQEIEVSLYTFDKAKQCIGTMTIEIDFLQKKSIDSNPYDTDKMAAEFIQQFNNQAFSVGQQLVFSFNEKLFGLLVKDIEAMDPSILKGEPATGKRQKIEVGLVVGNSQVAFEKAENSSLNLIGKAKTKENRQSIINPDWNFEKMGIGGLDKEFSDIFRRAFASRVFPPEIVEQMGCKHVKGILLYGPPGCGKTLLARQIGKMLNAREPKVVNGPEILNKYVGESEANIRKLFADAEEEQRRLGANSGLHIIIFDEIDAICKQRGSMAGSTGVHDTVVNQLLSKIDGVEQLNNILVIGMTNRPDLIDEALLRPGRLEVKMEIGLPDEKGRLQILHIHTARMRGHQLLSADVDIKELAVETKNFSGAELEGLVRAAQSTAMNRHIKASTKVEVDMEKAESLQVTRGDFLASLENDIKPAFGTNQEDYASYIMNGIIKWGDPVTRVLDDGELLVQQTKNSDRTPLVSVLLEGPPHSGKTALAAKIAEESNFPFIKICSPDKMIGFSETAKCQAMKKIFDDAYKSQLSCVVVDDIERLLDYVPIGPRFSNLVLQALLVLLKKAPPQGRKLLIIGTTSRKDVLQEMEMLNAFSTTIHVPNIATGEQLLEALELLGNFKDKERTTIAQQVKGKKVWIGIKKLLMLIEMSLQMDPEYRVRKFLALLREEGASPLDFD
# UniProt Q9H4B0: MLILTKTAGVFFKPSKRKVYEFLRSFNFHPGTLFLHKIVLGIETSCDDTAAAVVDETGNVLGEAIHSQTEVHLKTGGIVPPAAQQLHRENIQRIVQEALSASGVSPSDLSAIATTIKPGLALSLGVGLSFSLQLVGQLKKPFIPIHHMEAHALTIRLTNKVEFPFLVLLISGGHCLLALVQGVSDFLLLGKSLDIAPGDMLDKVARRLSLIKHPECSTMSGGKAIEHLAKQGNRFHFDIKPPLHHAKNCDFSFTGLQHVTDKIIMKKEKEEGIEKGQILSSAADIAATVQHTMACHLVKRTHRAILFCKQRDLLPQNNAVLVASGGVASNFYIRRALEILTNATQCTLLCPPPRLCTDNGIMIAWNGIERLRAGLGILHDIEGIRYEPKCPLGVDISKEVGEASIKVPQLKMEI
# UniProt O96013: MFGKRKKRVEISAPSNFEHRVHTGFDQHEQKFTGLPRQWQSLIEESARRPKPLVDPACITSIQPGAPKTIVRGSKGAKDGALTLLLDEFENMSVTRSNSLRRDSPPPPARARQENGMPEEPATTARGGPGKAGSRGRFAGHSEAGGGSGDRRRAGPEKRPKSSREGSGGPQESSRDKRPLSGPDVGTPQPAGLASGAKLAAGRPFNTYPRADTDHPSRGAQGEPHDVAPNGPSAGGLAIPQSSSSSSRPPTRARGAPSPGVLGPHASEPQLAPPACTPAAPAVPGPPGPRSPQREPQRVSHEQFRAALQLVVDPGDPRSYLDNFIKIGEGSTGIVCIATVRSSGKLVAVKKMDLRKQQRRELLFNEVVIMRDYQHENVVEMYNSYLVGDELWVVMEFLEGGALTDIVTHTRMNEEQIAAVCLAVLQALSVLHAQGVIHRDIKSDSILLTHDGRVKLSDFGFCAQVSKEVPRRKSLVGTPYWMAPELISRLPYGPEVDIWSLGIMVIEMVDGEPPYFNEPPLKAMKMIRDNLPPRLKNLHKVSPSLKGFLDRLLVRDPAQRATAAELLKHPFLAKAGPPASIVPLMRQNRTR
# UniProt Q96AQ6: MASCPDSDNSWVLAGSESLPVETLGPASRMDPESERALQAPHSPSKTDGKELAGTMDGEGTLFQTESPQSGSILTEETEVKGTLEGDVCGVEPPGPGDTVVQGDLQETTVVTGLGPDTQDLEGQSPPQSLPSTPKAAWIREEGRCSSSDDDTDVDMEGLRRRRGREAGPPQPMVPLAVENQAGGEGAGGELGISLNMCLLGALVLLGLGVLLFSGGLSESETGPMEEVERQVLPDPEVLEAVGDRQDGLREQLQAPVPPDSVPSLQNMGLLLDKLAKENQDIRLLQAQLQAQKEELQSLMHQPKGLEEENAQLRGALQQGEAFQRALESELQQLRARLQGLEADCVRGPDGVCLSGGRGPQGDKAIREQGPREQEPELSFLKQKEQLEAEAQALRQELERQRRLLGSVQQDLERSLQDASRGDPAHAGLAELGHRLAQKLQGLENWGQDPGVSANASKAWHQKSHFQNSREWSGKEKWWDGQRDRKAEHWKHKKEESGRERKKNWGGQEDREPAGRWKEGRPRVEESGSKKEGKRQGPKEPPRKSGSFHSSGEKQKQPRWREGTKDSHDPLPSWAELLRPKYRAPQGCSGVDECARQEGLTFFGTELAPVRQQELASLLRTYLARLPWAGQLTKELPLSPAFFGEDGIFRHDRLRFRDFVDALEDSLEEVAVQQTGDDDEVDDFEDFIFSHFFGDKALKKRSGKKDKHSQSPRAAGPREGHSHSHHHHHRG
# UniProt O60925, whole entry: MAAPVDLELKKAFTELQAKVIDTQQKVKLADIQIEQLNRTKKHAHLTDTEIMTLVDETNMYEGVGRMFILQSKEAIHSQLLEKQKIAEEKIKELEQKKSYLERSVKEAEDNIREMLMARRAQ
# UniProt Q8WV74: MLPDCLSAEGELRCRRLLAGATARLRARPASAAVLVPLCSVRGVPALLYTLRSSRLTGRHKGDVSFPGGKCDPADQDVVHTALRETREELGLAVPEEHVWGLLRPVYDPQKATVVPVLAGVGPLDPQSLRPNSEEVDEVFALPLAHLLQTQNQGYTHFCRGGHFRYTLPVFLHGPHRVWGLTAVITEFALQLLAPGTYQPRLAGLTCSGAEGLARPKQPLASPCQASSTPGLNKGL
# UniProt Q8N6M0: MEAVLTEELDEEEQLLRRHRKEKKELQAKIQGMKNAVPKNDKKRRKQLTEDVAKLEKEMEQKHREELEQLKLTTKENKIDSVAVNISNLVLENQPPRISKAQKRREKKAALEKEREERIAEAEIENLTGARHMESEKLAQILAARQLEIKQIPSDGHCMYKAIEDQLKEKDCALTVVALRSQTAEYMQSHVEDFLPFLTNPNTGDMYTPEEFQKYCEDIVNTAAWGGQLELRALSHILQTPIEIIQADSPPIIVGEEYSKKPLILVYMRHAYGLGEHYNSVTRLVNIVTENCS
# UniProt P49757: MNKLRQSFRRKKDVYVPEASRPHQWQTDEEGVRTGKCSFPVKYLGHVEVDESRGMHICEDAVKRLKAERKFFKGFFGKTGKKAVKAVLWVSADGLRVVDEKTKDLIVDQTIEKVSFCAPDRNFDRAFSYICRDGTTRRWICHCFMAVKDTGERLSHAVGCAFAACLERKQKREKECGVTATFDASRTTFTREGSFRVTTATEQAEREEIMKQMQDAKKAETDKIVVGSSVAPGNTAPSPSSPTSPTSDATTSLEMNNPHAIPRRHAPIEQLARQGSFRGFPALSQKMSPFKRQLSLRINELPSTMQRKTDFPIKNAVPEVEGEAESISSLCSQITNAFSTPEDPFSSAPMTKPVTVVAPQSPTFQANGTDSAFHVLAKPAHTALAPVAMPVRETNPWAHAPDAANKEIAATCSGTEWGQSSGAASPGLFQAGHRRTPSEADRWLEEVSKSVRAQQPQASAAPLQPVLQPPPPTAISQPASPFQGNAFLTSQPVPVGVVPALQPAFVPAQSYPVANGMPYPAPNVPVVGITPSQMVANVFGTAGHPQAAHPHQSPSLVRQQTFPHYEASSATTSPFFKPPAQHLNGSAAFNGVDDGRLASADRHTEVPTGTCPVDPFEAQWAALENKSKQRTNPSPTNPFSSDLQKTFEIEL
# UniProt P41231: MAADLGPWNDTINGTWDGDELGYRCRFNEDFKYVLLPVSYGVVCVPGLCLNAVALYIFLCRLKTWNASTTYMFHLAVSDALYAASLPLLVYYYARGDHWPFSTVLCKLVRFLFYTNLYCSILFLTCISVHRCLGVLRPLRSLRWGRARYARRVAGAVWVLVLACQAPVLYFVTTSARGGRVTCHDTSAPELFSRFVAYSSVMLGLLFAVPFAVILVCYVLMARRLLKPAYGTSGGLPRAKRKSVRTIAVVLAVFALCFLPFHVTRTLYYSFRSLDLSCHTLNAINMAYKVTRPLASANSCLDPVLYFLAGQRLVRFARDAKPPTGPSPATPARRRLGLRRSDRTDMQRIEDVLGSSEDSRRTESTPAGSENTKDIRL
# UniProt Q9BXS6: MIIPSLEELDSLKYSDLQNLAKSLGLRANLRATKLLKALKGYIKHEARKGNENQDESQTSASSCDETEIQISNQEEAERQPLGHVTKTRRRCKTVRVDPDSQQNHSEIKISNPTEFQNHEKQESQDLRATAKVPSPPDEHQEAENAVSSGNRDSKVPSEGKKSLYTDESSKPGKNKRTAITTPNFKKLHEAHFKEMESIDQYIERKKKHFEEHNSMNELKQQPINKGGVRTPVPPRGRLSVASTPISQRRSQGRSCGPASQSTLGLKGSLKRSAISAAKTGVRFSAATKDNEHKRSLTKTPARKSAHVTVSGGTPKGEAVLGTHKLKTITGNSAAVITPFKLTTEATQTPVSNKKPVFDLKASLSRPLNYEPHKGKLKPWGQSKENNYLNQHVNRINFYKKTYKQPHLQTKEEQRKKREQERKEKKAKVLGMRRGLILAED
# This is one part of the list.
# Compound: COc1ccc(Cn2ccc3ccc(C(=O)NO)cc32)cc1
# Assay: dose-dependent thermal stabilisation call (2D-TPP, DLPTP, 10% FDR) (binary (1 = stabilised)); higher = stabilised by the compound
# Details: system: HL-60 intact cells; concentration range 0.04-10 µM
row,Target,dose-dependent thermal stabilisation call
1,OSBPL2 (UniProt Q9H1P3),inactive: 0
2,NUP214 (UniProt P35658),inactive: 0
3,NUDT9 (UniProt Q9BW91),inactive: 0
4,OSTF1 (UniProt Q92882),inactive: 0
5,PARP16 (UniProt Q8N5Y8),inactive: 0
6,NSUN2 (UniProt Q08J23),inactive: 0
7,NUMA1 (UniProt Q14980),inactive: 0
8,NT5DC1 (UniProt Q5TFE4),inactive: 0
9,NUDT21 (UniProt O43809),inactive: 0
10,NRD1 (UniProt O43847),inactive: 0
11,NSF (UniProt P46459),inactive: 0
12,NSUN5 (UniProt Q96P11),inactive: 0
13,NUP62 (UniProt P37198),inactive: 0
14,PARD3 (UniProt Q8TEW0),inactive: 0
15,PARP12 (UniProt Q9H0J9),inactive: 0
16,OSGEPL1 (UniProt Q9H4B0),inactive: 0
17,PARP10 (UniProt Q53GL7),inactive: 0
18,PAK4 (UniProt O96013),inactive: 0
19,NT5C2 (UniProt P49902),inactive: 0

# A run of entries taken from the entries so far:
row,Target,dose-dependent thermal stabilisation call
4,OSTF1 (UniProt Q92882),inactive: 0
5,PARP16 (UniProt Q8N5Y8),inactive: 0
6,NSUN2 (UniProt Q08J23),inactive: 0
7,NUMA1 (UniProt Q14980),inactive: 0
8,NT5DC1 (UniProt Q5TFE4),inactive: 0
9,NUDT21 (UniProt O43809),inactive: 0
10,NRD1 (UniProt O43847),inactive: 0
11,NSF (UniProt P46459),inactive: 0
12,NSUN5 (UniProt Q96P11),inactive: 0
13,NUP62 (UniProt P37198),inactive: 0
14,PARD3 (UniProt Q8TEW0),inactive: 0

# Carrying on:

row,Target,dose-dependent thermal stabilisation call
1,PDLIM5 (UniProt Q96HC4),inactive: 0
2,OSBPL6 (UniProt Q9BZF3),inactive: 0
3,NRBF2 (UniProt Q96F24),inactive: 0
4,PBXIP1 (UniProt Q96AQ6),inactive: 0
5,PGAP1 (UniProt Q75T13),inactive: 0
6,PFDN1 (UniProt O60925),inactive: 0
7,NUFIP1 (UniProt Q9UHK0),inactive: 0
8,NUDT8 (UniProt Q8WV74),inactive: 0
9,PDS5B (UniProt Q9NTI5),inactive: 0
10,PCIF1 (UniProt Q9H4Z3),inactive: 0
11,OTUD6B (UniProt Q8N6M0),inactive: 0
12,NUMB (UniProt P49757),inactive: 0
13,NXT2 (UniProt Q9NPJ8),inactive: 0
14,P2RY2 (UniProt P41231),inactive: 0
15,NUSAP1 (UniProt Q9BXS6),inactive: 0
16,NR3C1 (UniProt P04150),inactive: 0
17,OSBPL9 (UniProt Q96SU4),inactive: 0
18,NR2C2AP (UniProt Q86WQ0),inactive: 0
19,PCF11 (UniProt O94913),inactive: 0
